The other results are listed elsewhere or left out. Shown are side measurements of this screen, not its main read-out; they come without a call. The list favours compounds with an active or inconclusive main result. Words in brackets tell the shape of the fitted curve; partial curves, single points and poor fits give uncertain potencies.

Data on 39 compounds can be found in PubChem BioAssay AID493014 (National Center for Advancing Translational Sciences (NCATS), 2011).

This test is described as follows: qHTS Assay to Find Inhibitors of Chronic Active B-Cell Receptor Signaling. The conditions noted are these: ABC-DLBCL IkBa-CBG/CBR reporter, luminescence ratio (green luciferase fused to IkBa over red control in TMD8 lymphoma cells), 4 h. Put shortly: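 TMD8 ABC-DLBCL cells carrying doxycycline-inducible green luciferase fused to IkappaBalpha plus unfused red luciferase were exposed to compounds (up to 46 uM) for 4 hrs at 37C. Activity came from the overlap-corrected green/red luminescence ratio.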

The mark [1] stands for this setting: measured here: CBR red luminescence, cell number.
[2] abbreviates: measured here: IkBa-CBG green luminescence.

With `CCN(CC)CCOC(=O)c1ccc(NC(=O)c2cc3cccc(OC)c3oc2=O)cc1`, the half-maximal activity concentration (AC50) under setting [1] is 0.316 µM [falling, full curve, poor fit].
Same read-out and setting: next, `CC(C)(C)OC(=O)NCCc1nnc(SCC(=O)Nc2ccc(Br)cc2)o1`: 11.2 µM [falling, partial curve, poor fit].
As for `C/C(=N/NC(=O)c1ccoc1C)c1ccc(NC(=O)c2ccncc2)cc1`, the half-maximal activity concentration (AC50) under setting [1] was 5.8 µM [falling, partial curve].
Turning to `CC1(C)CCC(=O)N2CC[C@H]3C[C@H](OC(=O)Nc4ccc(Br)cc4)C[C@@H]1[C@H]32`, the half-maximal activity concentration (AC50) under setting [1] was 0.316 µM [rising, full curve, poor fit].
On the same count and under the same terms, next, `Cc1ccc2nc(NC(=O)c3ccc(OCC4CCCO4)cc3)sc2c1` (centres undefined): 2.06 µM [falling, full curve]; `c1cnc(N2CCN(Cc3ccc4c(c3)OCO4)CC2)nc1`: 16.4 µM [rising, partial curve].
`Cc1[nH]nc2c1/C(=N/O)CC(c1ccccc1)C2` (centres undefined): the AC50 under setting [1] was 3.98 µM [falling, full curve].
For the compound `CNC(=O)c1ccc(Nc2nnc(-c3ccc(C)c(S(=O)(=O)NCC4CCCO4)c3)c3ccccc23)cc1` (centres undefined), the AC50 under setting [1] is 16.4 µM [falling, partial curve, poor fit].
In the case of `CCOC(=O)N1CCN(C(=O)CN(c2ccc3c(c2)OCO3)S(C)(=O)=O)CC1`, under setting [1], the half-maximal activity concentration (AC50) is 29.1 µM [rising, partial curve, poor fit].
The same measure, in the same setting: the value for `CNC(=O)c1c(NC(=O)C2=COCCO2)sc2c1CCCC2` was 6.31 µM [rising, single point]; that for `CCCCCCCNC1=CC(=O)CC(c2ccco2)C1` (centres undefined) was 16.4 µM [rising, partial curve, poor fit].
For the compound `FC(F)(F)c1cccc(OCC2CNC(=S)O2)c1` (centres undefined), the AC50 under setting [1] was 0.0891 µM [rising, full curve, poor fit].
Take `O=C(NCCc1ccccc1)C(=S)N1CCCCC1`: under setting [1], the AC50 is 15.8 µM [rising, single point].
With `COc1ccc(/C=C2/SC(=S)N(CCCC(=O)Nc3ccc(O)cc3)C2=O)cc1`, the AC50 under setting [1] was 2.82 µM [falling, partial curve].
For `O=C(CCn1c(=O)[nH]c2ccccc2c1=O)N1CCN(c2cccc(C(F)(F)F)c2)CC1`, the half-maximal activity concentration (AC50) under setting [1] is 1.78 µM [rising, partial curve, poor fit].
On to `COc1ccc(NC(=O)c2cccc(S(=O)(=O)N3CCCCC3)c2)c(OC)c1`, for which the AC50 under setting [1] was 10 µM [falling, single point].
As to `CCOC(=O)C(C(=O)OCC)c1cc(Br)c2noc3c2c1C(=O)c1ccccc1-3`, the AC50 under setting [2] was 0.708 µM [rising, full curve, poor fit].
Consider `Cc1cc(C=NCCO)c(C)n1-c1cc(Cl)ccc1Cl`, for which the AC50 under setting [1] is 20 µM [falling, partial curve, poor fit].
`CCOC(=O)c1cc2c(ccc3ccccc32)oc1=O`: the AC50 under setting [1] is 0.1 µM [rising, full curve, poor fit].
In the case of `C=CCSc1nnc(N2C(=O)C(O)=C(C(=O)c3ccco3)C2c2ccc(F)cc2)s1` (centres undefined), the concentration at half-maximal activity (AC50) under setting [1] was 11.2 µM [falling, single point].
Still for that read-out and setting: next, `Cn1c(=O)c(C(=O)COC(=O)c2cc(-c3ccccc3)nc3ccccc23)c(N)n(Cc2ccccc2)c1=O`: 1.03 µM [rising, full curve, poor fit].
Regarding `CC(CN1CCCCC1)OC(=O)c1ccccc1Cl` (centres undefined), the half-maximal activity concentration (AC50) under setting [1] was 6.51 µM [falling, single point].
As for `CC(C)CCn1c(O)c(N=Nc2ccccn2)c2ccccc21`, the AC50 under setting [1] is 11.6 µM [rising, partial curve].
Consider `CN(C)NC(=O)c1ccsc1NC(=O)c1ccc(S(=O)(=O)N(C)C)cc1`, for which the AC50 under setting [1] was 0.112 µM [falling, full curve, poor fit].
The same measure, in the same setting: the value for `Cn1cc([N+](=O)[O-])c(C(=O)Nc2ccc(-c3nc4ccccc4[nH]3)cc2)n1` was 23.1 µM [falling, single point].
`COc1ccccc1NC(c1cccnc1)c1ccc2cccnc2c1O` (centres undefined): the concentration at half-maximal activity (AC50) under setting [1] was 8.2 µM [falling, partial curve, poor fit].
For the compound `CN1C2=CC=CC=CC2=[N+](C)C12C=CC(=[N+]([O-])[O-])C=C2[N+](=O)[O-]` (centres undefined), under setting [1], the AC50 is 35.5 µM [rising, partial curve, poor fit].
For `O=C(COC(=O)CCCN1C(=O)c2cccc3cccc(c23)C1=O)NC1CCS(=O)(=O)C1` (centres undefined), the AC50 under setting [1] was 1.16 µM [rising, full curve].
As to `Nc1cc(S(=O)(=O)N2CCOCC2)ccc1N1CCCCC1`, the AC50 under setting [1] is 23.1 µM [rising, single point].
For `O=C(Cc1ccc(Cl)cc1)NC(=S)Nc1ccccc1N1CCOCC1`, the AC50 under setting [2] is 23.1 µM [rising, partial curve, poor fit].
Regarding `Cc1nc2c3ccccc3n(Cc3ccccc3F)c2s1`, under setting [1], the AC50 is 14.6 µM [rising, partial curve, poor fit].
Still for that read-out and setting: next, `CCOC(=O)N1CCN(c2nc3ccc(C(=O)c4ccccc4)cc3n3cnnc23)CC1`: 35.5 µM [rising, partial curve, poor fit].
As to `COc1ccc2ccc(O)c(CN3CCN(S(=O)(=O)c4cc([N+](=O)[O-])ccc4C)CC3)c2c1`, under setting [2], the concentration at half-maximal activity (AC50) was 8.2 µM [falling, partial curve, poor fit].
`O=C(CSC(=S)N1CCCC1)c1ccccc1`: the AC50 under setting [1] is 15.8 µM [falling, partial curve].
On the same count and under the same terms, next, `Cc1cccc([C@@H]2[C@@H]3C(=O)N(Cc4ccccc4)C(=O)[C@@H]3[C@]3(CC(C)C)C(=O)N(c4cccc(Br)c4)C(=O)N23)c1`: 1.41 µM [falling, full curve, poor fit].
Turning to `O=C(NC(=S)Nc1cccc(Cl)c1N1CCCCC1)c1cccs1`, the concentration at half-maximal activity (AC50) under setting [1] was 14.1 µM [rising, single point].
In the case of `Cc1c(C(=O)Nc2nc3ccccc3[nH]2)oc2c(Cl)cccc12`, the AC50 under setting [1] is 2.31 µM [falling, full curve, poor fit].
Consider `Cc1ccc(C)c(NC(=O)c2nnn(Cc3ccccc3C)c2N)c1`, for which, under setting [1], the concentration at half-maximal activity (AC50) was 8.91 µM [falling, partial curve, poor fit].
Regarding `COc1ccc(NC(=O)N(C)C[C@H]2Oc3c(NC(=O)Cc4ccccc4)cccc3C(=O)N([C@H](C)CO)C[C@@H]2C)cc1`, the AC50 under setting [1] is 25.9 µM [rising, single point].

The term AC50 denotes the concentration at which the activity in the assay is half-maximal.
